# Results reported in the supplement of paper PMC12067093, “Discovery and optimisation of a covalent ligand for TRIM25 and its application to targeted protein ubiquitination” (Chemical Science, 2025).
# Protein sequences, listed by entry. Tags and fused reporters are not part of them. Lines headed by an entry give the natural chain unless they say otherwise; changes in a name come on top.
# UniProt Q5T4S7, whole entry, looked up: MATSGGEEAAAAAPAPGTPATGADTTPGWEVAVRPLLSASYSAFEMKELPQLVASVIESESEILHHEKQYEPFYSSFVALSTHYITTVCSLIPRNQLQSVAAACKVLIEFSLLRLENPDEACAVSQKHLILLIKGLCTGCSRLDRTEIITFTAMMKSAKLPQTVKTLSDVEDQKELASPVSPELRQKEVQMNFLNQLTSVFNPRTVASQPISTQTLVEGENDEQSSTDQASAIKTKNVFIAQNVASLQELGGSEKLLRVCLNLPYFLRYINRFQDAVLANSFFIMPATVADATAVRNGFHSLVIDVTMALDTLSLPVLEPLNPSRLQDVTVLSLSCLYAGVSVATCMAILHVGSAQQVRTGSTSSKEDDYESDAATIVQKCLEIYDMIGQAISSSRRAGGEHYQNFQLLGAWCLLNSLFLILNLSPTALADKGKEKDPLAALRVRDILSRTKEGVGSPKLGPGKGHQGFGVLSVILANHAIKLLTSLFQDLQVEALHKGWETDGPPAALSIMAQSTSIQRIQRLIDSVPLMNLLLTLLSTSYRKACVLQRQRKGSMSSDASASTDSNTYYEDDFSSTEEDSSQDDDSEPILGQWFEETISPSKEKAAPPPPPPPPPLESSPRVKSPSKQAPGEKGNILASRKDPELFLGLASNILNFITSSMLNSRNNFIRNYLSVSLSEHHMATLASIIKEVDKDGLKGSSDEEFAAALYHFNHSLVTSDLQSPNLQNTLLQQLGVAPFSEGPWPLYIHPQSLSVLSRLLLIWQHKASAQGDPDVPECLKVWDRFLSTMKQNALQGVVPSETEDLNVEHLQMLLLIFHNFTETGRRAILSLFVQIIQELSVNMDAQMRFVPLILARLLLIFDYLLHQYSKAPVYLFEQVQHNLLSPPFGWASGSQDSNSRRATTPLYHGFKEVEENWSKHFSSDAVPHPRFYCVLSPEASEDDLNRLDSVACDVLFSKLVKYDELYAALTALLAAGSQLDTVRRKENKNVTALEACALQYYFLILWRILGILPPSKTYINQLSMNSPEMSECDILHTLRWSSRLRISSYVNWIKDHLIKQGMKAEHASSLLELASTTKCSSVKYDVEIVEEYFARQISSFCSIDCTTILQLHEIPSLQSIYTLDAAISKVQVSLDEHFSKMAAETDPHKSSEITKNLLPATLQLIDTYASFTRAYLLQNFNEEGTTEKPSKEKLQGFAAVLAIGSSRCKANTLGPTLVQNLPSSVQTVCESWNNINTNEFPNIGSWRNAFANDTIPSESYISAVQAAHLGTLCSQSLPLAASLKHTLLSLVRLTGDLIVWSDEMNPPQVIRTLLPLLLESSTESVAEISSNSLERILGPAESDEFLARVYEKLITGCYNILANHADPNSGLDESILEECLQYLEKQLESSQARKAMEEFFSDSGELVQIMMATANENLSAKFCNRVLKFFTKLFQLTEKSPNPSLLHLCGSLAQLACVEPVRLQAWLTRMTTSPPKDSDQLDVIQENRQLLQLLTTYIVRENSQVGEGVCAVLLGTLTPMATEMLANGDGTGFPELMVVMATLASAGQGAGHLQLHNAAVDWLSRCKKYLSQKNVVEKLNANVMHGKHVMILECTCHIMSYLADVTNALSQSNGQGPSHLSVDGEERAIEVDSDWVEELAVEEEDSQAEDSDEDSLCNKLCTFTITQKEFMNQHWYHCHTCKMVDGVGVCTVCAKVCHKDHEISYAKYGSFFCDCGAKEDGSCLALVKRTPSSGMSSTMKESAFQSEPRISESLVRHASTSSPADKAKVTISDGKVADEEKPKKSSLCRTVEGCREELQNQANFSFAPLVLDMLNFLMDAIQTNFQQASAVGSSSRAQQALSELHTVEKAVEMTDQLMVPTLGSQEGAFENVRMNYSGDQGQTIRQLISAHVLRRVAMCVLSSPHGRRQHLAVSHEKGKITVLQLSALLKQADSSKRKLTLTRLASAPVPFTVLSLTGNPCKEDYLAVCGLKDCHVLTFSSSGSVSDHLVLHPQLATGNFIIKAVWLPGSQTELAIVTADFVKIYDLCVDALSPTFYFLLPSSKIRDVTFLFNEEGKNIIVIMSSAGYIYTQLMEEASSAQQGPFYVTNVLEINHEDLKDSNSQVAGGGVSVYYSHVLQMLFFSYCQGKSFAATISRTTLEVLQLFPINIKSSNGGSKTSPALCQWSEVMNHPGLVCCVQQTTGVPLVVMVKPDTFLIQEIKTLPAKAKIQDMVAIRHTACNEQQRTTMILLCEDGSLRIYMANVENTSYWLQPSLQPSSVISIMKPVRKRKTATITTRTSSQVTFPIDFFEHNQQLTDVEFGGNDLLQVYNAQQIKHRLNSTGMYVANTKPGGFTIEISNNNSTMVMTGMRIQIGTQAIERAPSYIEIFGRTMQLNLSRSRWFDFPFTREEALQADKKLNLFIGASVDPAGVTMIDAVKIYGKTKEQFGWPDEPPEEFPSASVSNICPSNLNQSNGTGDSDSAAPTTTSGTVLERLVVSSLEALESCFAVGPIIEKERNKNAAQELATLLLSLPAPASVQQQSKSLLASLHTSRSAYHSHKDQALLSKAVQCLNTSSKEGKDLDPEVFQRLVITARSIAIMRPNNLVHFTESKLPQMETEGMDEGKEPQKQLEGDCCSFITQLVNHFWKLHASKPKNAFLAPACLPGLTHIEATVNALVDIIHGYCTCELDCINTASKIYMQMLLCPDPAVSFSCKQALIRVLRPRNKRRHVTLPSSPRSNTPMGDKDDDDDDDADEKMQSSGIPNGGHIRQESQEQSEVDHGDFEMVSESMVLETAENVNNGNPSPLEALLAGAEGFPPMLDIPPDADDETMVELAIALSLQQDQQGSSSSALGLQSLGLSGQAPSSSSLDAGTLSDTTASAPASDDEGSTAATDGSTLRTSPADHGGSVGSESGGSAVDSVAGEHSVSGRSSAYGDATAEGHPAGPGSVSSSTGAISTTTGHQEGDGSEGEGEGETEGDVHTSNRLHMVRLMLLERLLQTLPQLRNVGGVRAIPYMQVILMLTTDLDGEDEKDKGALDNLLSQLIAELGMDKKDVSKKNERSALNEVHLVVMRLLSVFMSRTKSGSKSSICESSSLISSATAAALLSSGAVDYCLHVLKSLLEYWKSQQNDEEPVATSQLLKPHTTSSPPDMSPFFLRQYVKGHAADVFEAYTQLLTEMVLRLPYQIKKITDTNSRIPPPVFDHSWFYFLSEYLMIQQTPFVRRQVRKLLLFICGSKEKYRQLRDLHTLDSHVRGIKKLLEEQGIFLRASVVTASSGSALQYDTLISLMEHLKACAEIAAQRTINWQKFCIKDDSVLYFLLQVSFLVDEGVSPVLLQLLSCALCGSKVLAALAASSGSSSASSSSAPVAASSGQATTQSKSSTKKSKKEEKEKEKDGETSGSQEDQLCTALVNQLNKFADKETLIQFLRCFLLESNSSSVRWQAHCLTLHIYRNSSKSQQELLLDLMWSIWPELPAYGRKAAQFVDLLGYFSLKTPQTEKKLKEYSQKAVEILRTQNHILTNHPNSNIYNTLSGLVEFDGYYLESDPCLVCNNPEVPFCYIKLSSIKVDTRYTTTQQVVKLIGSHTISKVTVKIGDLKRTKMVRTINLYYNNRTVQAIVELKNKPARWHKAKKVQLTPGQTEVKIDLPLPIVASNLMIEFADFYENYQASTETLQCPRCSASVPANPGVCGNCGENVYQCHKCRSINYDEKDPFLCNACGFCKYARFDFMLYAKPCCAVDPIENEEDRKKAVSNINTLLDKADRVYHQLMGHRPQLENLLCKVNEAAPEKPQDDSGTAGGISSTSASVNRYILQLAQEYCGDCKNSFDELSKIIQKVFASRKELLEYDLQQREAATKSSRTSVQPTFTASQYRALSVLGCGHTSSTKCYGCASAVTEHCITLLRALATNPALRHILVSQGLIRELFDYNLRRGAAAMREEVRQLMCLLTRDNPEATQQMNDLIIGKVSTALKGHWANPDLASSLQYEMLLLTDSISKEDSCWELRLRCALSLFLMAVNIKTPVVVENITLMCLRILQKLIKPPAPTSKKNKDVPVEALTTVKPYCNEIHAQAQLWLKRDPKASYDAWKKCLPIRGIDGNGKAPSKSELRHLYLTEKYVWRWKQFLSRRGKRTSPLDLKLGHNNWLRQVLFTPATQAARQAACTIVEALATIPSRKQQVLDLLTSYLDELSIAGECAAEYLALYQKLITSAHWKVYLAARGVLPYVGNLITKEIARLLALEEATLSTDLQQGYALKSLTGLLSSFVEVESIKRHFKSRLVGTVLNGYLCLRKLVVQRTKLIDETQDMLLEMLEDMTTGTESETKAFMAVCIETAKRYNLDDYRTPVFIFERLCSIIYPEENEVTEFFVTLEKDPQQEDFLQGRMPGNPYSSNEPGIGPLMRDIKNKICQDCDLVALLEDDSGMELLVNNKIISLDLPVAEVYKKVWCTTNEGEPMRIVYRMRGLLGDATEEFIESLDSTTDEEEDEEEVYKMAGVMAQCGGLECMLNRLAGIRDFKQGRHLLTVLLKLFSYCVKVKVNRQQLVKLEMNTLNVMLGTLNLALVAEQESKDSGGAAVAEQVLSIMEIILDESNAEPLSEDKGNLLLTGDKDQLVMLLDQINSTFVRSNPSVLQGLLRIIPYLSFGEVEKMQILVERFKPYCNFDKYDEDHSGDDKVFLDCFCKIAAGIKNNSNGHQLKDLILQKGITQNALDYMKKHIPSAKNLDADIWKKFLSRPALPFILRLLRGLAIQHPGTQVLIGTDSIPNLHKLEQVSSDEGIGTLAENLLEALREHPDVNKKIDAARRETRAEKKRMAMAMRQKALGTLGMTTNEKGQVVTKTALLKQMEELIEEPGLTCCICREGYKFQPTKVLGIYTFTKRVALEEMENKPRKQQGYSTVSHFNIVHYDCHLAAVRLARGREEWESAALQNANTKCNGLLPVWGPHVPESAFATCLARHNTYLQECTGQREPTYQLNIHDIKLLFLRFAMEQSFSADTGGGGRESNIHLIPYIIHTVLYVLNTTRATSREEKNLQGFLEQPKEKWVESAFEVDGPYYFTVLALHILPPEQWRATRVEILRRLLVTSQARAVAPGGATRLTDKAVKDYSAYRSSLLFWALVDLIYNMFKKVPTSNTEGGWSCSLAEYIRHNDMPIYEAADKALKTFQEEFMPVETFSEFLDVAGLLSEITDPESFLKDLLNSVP
# UniProt O43396: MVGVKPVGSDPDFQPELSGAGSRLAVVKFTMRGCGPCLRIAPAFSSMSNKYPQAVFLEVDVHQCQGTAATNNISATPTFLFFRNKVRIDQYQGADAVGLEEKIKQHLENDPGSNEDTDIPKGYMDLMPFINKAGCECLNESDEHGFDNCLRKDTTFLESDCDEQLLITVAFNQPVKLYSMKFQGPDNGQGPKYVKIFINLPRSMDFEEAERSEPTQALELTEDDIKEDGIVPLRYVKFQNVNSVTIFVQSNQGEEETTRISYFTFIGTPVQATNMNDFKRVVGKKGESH
# UniProt Q712K3: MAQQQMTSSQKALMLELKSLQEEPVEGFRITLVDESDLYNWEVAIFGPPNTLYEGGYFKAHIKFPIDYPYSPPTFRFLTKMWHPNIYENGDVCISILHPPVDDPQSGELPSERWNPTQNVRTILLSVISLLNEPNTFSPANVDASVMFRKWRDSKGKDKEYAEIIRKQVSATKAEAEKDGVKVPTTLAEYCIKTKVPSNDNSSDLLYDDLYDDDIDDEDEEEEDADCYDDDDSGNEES
# Some of the results follow.
# Compound: CC1Cc2ccccc2N1C(=O)C1CCCN(C1)C(=O)CCl (mixture of isomers) [TRIM25 ligand 11 (diastereomer mixture)]
# Experiment: probe-labelled cysteine peptide fold change vs DMSO (competition) (log2 fold change); higher = less target engagement (more negative = stronger competition)
# Settings: THP-1, incubation time: 4 h
# 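Further: competitive chemoproteomic profiling in live THP-1 cells with an iodoacetamide desthiobiotin (IA-DTB) probe, comparing probe-labelled peptide intensities in compound-treated cells against DMSO-treated controls.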
Target,probe-labelled cysteine peptide fold change (10 µM),probe-labelled cysteine peptide fold change (50 µM)
UBASH3B_Q8TF42_474_CVQTAHNILK (UniProt Q8TF42),-0.00626,-0.0601
UBR4_Q5T4S7_779_ASAQGDPDVPECLK (UniProt Q5T4S7),0.111,0.287
TXNL1_O43396_135_AGCECLNESDEHGFDNCLRK (UniProt O43396),-0.116,-0.268
UBR4_Q5T4S7_4430_VWCTTNEGEPMR (UniProt Q5T4S7),0.0122,-0.0424
UBE2R2_Q712K3_191_VPTTLAEYCIK (UniProt Q712K3),0.0926,-0.145
